# Laboratory results reported in the supplement of paper PMC10338343.
# ± gives the standard deviation. The list shows a part of the results, in another mix than the full data. Many of these values have a large error.
# Test system: MILI (PIWIL2) piRISC loaded with L1MC piRNA (26 nt)
# Assay: pre-steady-state target cleavage rate (min^-1); MIWI and MILI are mouse PIWI proteins and EfPiwi is from a freshwater sponge; tags in brackets are library labels; higher = faster piRNA-guided slicing of the target
# Details: guide: L1MC piRNA 5'p-UAACUAAAUACUAUGCAAGCUGUAGG; auxiliary factor: 500 nM mouse GTSF1
# Outline: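 Cleave-'n-Seq measured uncleaved targets by sequencing after a transcribed, DNA-blocked target RNA library […] was mixed with 1 nM active affinity-purified piRISC holding one synthetic guide, with or without 500 nM GTSF1 partner protein, at 33 °C in HEPES–potassium acetate buffer for 0–8 or 0–960 min. Counts were normalised to depth and to weakly complementary targets, three trials were pooled, and k3 was capped at 0.0001 min^-1. A burst-and-steady-state fit gave the pre-steady-state cleavage rate.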
# 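Further: 1 nM active piRISC with 0.1 nM target library at 33 °C single turnover.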
row,Sequence,pre-steady-state target cleavage rate
1,UCCUGGAACAGAUUGCAUAGUAUUUAGUUA,0.284 ± 0.012
2,UCCUGGAUCCGCUUGCAUAGUAUUUAGUUA,0.297 ± 0.019
3,UCCUGCUACAGCUAGCAUAGUAUUUAGUUA,0.354 ± 0.027

# Same assay, conditions: guide: L1MC piRNA 5'p-UAACUAAAUACUAUGCAAGCUGUAGG; auxiliary factor: none (no GTSF1)
row,Sequence,pre-steady-state target cleavage rate
1,UCCUGGAUGACCUUGCAUAGAAUUUAGUUA,0.000413 ± 0.0079
2,UCCUGGAUGUCGUUGCAUAGUAUAUAGUAA,0.00213 ± 0.0034
3,UCCUGGAUGUGCUUGCAUAGUAUUAAGUAA,0.00121 ± 0.0058
4,UCCUGGAUGUCGAACCAUAGUGUUUAGUUA,0.000372 ± 0.011
5,UCCUGCUACAGCUUGCAUAGUUUUUACUUA,0.0014 ± 0.0047
6,UCCUGGUACAGCUUGGAUAGUAUUUAGAUA,0.00197 ± 0.0056
7,UCCUCCUACAGCAUGCAUAGUAUUUAGAUA,0.0025 ± 0.0031
8,UCCUGGAUGUCGAUGCAUAGCAUUUAGUUA,0.00179 ± 0.0029
9,UCCUGGAUGUGCUUGCAUAGUAUUAUGUUA,0.0017 ± 0.0051
10,UCCUCCUAGAGCUUGCAUAGUUUUUAGUUA,0.00205 ± 0.0029
11,UCCUGGAACAGCUUGCAUAGUAUAUACUUA,0.00146 ± 0.0046
12,UCCUGGUACAGCUUGCAUAGUAUUUAGGUA,0.00224 ± 0.004
13,UCCUGGAUGUCCUUGCAUAGUAUUUACUUA,0.00223 ± 0.0034
14,UCCUGGAACAGCUUGCAUAGUAAUUACUUA,0.000935 ± 0.0076
15,UCCUGCUACAGCUUGCAUAGUAUUAUCAAA,0.0015 ± 0.0029
16,UCCUGCUACAGCUUGCAUAGAAUUUAGUUA,0.00225 ± 0.0031
17,UCCUGGAACAGCUUGCAUAGUAUAAUGUUA,0.00144 ± 0.0063
18,UCCUGGAUGUGCUUGCAUAGUAUUUCAGUUA,0.0015 ± 0.0064
19,UCCUGCUUCAGCUUGCAUAGAAUUUAGUUA,0.00238 ± 0.0027
20,UCCUCCUACUGCUUGCAUAGUAUUUAGAAA,0.00119 ± 0.0043
21,UCCUCCUACAGCUUGCAAAGUAUUUAGAUA,0.00117 ± 0.0042

# A few values from above.
# Value for UCCUGGAUGACCUUGCAUAGAAUUUAGUUA under pre-steady-state target cleavage rate: 0.000413 ± 0.0079
# Value for UCCUCCUACAGCAUGCAUAGUAUUUAGAUA under pre-steady-state target cleavage rate: 0.0025 ± 0.0031
